Paper PMC12396287
These are yes or no findings as the source states them, for the method shown. Binding seen in cells or lysates may run through a third protein. Some entries that bind do so weakly or less than the wild type. Tags and fused reporters may be left off the sequences shown.

By UniProt entry, the sequences of proteins in these tests, tags left out.
UniProt P25786: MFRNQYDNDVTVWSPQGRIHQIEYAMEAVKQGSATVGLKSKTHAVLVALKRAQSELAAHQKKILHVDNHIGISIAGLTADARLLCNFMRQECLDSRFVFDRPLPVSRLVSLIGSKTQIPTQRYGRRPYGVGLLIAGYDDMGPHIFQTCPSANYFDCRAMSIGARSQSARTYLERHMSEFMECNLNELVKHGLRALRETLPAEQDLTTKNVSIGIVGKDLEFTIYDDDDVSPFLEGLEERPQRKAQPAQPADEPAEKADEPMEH

Target: T1, HA-FAM111B (wild-type) (human) (UniProt Q6SJ93)
T1 sequence: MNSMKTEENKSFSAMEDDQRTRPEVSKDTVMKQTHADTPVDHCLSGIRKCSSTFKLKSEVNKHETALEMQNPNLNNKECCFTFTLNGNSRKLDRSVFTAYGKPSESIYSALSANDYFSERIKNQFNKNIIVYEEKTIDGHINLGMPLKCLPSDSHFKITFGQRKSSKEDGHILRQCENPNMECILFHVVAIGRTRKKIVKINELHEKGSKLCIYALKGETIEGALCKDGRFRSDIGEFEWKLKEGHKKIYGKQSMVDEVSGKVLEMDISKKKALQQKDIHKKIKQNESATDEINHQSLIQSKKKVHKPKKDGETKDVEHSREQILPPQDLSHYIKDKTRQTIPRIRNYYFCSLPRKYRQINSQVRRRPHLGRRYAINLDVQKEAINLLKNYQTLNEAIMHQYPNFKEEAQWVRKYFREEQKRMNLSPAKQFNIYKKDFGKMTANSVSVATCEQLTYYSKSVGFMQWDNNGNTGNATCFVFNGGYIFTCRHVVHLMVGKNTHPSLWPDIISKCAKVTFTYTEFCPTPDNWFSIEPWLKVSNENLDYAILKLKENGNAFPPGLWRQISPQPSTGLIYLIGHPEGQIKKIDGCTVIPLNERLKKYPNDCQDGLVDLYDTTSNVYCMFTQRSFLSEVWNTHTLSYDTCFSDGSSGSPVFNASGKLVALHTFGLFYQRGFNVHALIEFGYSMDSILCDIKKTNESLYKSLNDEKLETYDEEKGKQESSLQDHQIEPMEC
Assay: co-IP; HA immunoprecipitation with anti-HA magnetic beads (μMACS HA Isolation Kit) from 2 mg lysate of transfected HeLa cells; lysis buffer with 10 mM N-ethylmaleimide, 10 μM MG-132, protease inhibitors; Western blot of the eluate

- binding: binds
Substance: proteasome subunit PSMA1 (from UniProt P25786 1-263)
